Results taken from PubChem BioAssay AID1347136 (National Center for Advancing Translational Sciences (NCATS), 2019).
This list was built around the results that the source calls inconclusive (neither active nor inactive); the mix of calls is not that of the screen. Calls follow the shape of the dose curve; as a rule, active = well fitted inhibition curve with a large enough effect; inconclusive = small, poorly fitted or top-dose-only effect; inactive = no such curve, though single readings can be large or run the other way. Where the call is inconclusive, the potency comes from a doubtful curve fit.

Experiment: qHTS of pediatric cancer cell lines to identify multiple opportunities for drug repurposing: Orthogonal 3D viability screen for SJ-GBM2 cells
Details: SJ-GBM2 3D spheroid viability, PI/Hoechst imaging, 72 h
Excerpt: Drug repurposing or repositioning has been offered as a strategy for drug development in oncology programs. This approach has special potential for childhood cancers and other rare or orphan diseases, where the expected return on new drug development has been a disincentive to pharmaceuticals. […] In this project we exploit the poly-pharmacology of drugs to discover new indications via phenotypic screening of a panel of 19 well-characterized cell lines derived from solid tumors seen in children and adolescents. The goal is to identify approved drugs with previously unrecognized anticancer properties that has the potential to reveal new mechanisms and biological processes involved in carcinogenesis or drug resistance. We employed a titration-based paradigm (quantitative high-throughput screening or qHTS), where all compounds were tested at multiple concentrations for their effect on cell viability. […] Assay Submitter: Nathalia J. Martinez, National Center for Advancing Translational Sciences, National Institutes of Health, Rockville, MD, USA; email: natalia.martinez@nih.gov Shen, M et al. Quantitative high-throughput phenotypic screening of pediatric cancer cell lines identifies multiple opportunities for drug repurposing. […]

COC(=O)C1=CCCN(C)C1
Potency: inconclusive: 9.09 µM [inhibitor, partial curve, poor fit]
